The target of assay [1] is HSP90β/CDC37 heterocomplex in HEK293T cells stably expressing Renilla-HSP90β (LUMIER assay) (UniProt P27652). The assay is described as follows: LUMIER assay in HEK293T cells.
Assay [2] has the same target. Nature of the assay: LUMIER assay in TGFβ-treated HEK293T cells, with and without 10 µM KBU2046.

Protein sequences, listed by entry. Tags and fused reporters are not part of them. Lines headed by an entry give the natural chain unless they say otherwise; changes in a name come on top.
UniProt P27652: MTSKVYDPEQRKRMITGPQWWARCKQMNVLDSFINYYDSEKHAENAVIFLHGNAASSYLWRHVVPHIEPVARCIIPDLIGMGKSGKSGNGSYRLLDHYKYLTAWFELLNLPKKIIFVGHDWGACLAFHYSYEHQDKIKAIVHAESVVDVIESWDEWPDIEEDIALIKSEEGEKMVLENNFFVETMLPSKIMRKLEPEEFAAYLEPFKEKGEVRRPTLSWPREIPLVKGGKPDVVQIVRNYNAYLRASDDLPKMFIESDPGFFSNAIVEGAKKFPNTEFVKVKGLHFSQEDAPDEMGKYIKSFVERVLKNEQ

Results are given in words; binding and its absence hold for the method and conditions named. Some entries that bind do so weakly or less than the wild type. Tags and fused reporters may be left off the sequences shown.

B1: FLAG-tagged MAP3K6 transfected into HEK293T cells (enzyme, UniProt O95382 1-1288, looked up)
chain: MAGPCPRSGAERAGSCWQDPLAVALSRGRQLAAPPGRGCARSRPLSVVYVLTREPQPGLEPREGTEAEPLPLRCLREACAQVPRPRPPPQLRSLPFGTLELGDTAALDAFYNADVVVLEVSSSLVQPSLFYHLGVRESFSMTNNVLLCSQADLPDLQALREDVFQKNSDCVGSYTLIPYVVTATGRVLCGDAGLLRGLADGLVQAGVGTEALLTPLVGRLARLLEATPTDSCGYFRETIRRDIRQARERFSGPQLRQELARLQRRLDSVELLSPDIIMNLLLSYRDVQDYSAIIELVETLQALPTCDVAEQHNVCFHYTFALNRRNRPGDRAKALSVLLPLVQLEGSVAPDLYCMCGRIYKDMFFSSGFQDAGHREQAYHWYRKAFDVEPSLHSGINAAVLLIAAGQHFEDSKELRLIGMKLGCLLARKGCVEKMQYYWDVGFYLGAQILANDPTQVVLAAEQLYKLNAPIWYLVSVMETFLLYQHFRPTPEPPGGPPRRAHFWLHFLLQSCQPFKTACAQGDQCLVLVLEMNKVLLPAKLEVRGTDPVSTVTLSLLEPETQDIPSSWTFPVASICGVSASKRDERCCFLYALPPAQDVQLCFPSVGHCQWFCGLIQAWVTNPDSTAPAEEAEGAGEMLEFDYEYTETGERLVLGKGTYGVVYAGRDRHTRVRIAIKEIPERDSRFSQPLHEEIALHRRLRHKNIVRYLGSASQGGYLKIFMEEVPGGSLSSLLRSVWGPLKDNESTISFYTRQILQGLGYLHDNHIVHRDIKGDNVLINTFSGLLKISDFGTSKRLAGITPCTETFTGTLQYMAPEIIDQGPRGYGKAADIWSLGCTVIEMATGRPPFHELGSPQAAMFQVGMYKVHPPMPSSLSAEAQAFLLRTFEPDPRLRASAQTLLGDPFLQPGKRSRSPSSPRHAPRPSDAPSASPTPSANSTTQSQTFPCPQAPSQHPPSPPKRCLSYGGTSQLRVPEEPAAEEPASPEESSGLSLLHQESKRRAMLAAVLEQELPALAENLHQEQKQEQGARLGRNHVEELLRCLGAHIHTPNRRQLAQELRALQGRLRAQGLGPALLHRPLFAFPDAVKQILRKRQIRPHWMFVLDSLLSRAVRAALGVLGPEVEKEAVSPRSEELSNEGDSQQSPGQQSPLPVEPEQGPAPLMVQLSLLRAETDRLREILAGKEREYQALVQRALQRLNEEARTYVLAPEPPTALSTDQGLVQWLQELNVDSGTIQMLLNHSFTLHTLLTYATRDDLIYTRIRGGMVCRIWRAILAQRAGSTPVTSGP
As to B1, the binding result in assay [1] was “binds”.

B2: FLAG-tagged SGK3 transfected into HEK293T cells (enzyme, UniProt Q96BR1 1-496, looked up)
chain: MQRDHTMDYKESCPSVSIPSSDEHREKKKRFTVYKVLVSVGRSEWFVFRRYAEFDKLYNTLKKQFPAMALKIPAKRIFGDNFDPDFIKQRRAGLNEFIQNLVRYPELYNHPDVRAFLQMDSPKHQSDPSEDEDERSSQKLHSTSQNINLGPSGNPHAKPTDFDFLKVIGKGSFGKVLLAKRKLDGKFYAVKVLQKKIVLNRKEQKHIMAERNVLLKNVKHPFLVGLHYSFQTTEKLYFVLDFVNGGELFFHLQRERSFPEHRARFYAAEIASALGYLHSIKIVYRDLKPENILLDSVGHVVLTDFGLCKEGIAISDTTTTFCGTPEYLAPEVIRKQPYDNTVDWWCLGAVLYEMLYGLPPFYCRDVAEMYDNILHKPLSLRPGVSLTAWSILEELLEKDRQNRLGAKEDFLEIQNHPFFESLSWADLVQKKIPPPFNPNVAGPDDIRNFDTAFTEETVPYSVCVSSDYSIVNASVLEADDAFVGFSYAPPSEDLFL
On to B2, for which the binding result in assay [1] and in assay [2] was “binds” throughout.

Values taken from patent US20210293825A1, “METHODS FOR PRECISION THERAPEUTIC TARGETING OF HUMAN CANCER CELL MOTILITY AND KITS THEREOF” (UNITED STATES GOVERNMENT AS REPRESENTED BY THE DEPARTMENT …, priority 2018, published 2021).
